Results from US20060089325A1, “Antisense modulation of PTP1B expression” (priority 2004, published 2006).
For part of these data: At least one structure is not confirmed: it was looked up by name or label, or the drawing left a doubt. Some results were stated once for a whole list of compounds, not compound by compound.

Experiments:
[1] = tested on: Zucker diabetic fatty (ZDF) rats; assay: ZDF rats, comparison to rosiglitazone and metformin: blood glucose, HbA1c, meal tolerance, body weight; assay type: in vivo, rat; settings: 5 weeks
Procedure: A saline treated group of lean rats was also included in the study. Treatment with all drugs was initiated before the rats became frankly diabetic, which occurs at about 8 weeks of age. Plasma glucose levels were measured 3 and 5 weeks after treatment initiation. Body weight was measured once every week; in addition, HbA1c levels were measured at the end of the study by HPLC. A meal tolerance test was also performed after 4 weeks of treatment.
At the end of 5 weeks, some rats were sacrificed and the liver and epididymal fat pads were removed. The rest of the animals (n=4/group) were examined for changes in plasma glucose levels after cessation of treatment. Glucose measurements during the recovery phase were made 10 days and 5 weeks after stopping treatment. Tissue extracts were subjected to Western blot analysis to measure changes in PTP1B protein levels.

aged ZDF rats [2] = settings: three weeks, oligonucleotide 25 mg/kg ip twice a week, rosiglitazone 3 mg/kg/day orally
aged ZDF rats [3] = assay: Insulin tolerance test (ITT) in aged ZDF rats; assay type: in vivo, rat; settings: week 3, insulin 1.5 U/Kg ip, saline approximately 18,600

Row | Compound | Body weight after treatment [1] | Blood glucose levels (no significant reduction at any time point) (aged ZDF rats [2]) | Insulin tolerance test, plasma glucose average AUC (aged ZDF rats [3])
1 | CN(CCOc1ccc(CC2SC(=O)NC2=O)cc1)c1ccccn1 (stereo not drawn) [Rosiglitazone] | increased | – | –
2 | ISIS 141923: CCTTCCCTGAAGGTTCCTCC (SEQ ID NO: 20), six-mismatch control of ISIS 113715, negative oligonucleotide control (chemistry not given here) | – | 400 to 460 mg/dL | 13,800-14,600 mg/dL×min
